Source: the supplement of paper PMC11006884
This is a selection; strong and weak results do not stand in their true shares.

The chains behind the UniProt entries cited, without tags or fusion partners. Where a name states a change or a piece, a line headed by the entry shows the natural chain unless it says otherwise.
UniProt Q8N8R5: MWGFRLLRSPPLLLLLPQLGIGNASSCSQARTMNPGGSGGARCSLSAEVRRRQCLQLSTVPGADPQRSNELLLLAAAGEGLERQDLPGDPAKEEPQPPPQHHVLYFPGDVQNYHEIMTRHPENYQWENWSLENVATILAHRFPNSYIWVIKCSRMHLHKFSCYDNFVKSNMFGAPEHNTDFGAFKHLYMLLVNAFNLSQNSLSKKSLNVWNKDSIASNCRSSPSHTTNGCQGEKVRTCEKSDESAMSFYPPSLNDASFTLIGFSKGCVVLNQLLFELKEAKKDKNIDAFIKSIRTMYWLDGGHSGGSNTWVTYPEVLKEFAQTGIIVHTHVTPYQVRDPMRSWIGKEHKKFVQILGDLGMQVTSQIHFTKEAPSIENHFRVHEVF
UniProt Q92503: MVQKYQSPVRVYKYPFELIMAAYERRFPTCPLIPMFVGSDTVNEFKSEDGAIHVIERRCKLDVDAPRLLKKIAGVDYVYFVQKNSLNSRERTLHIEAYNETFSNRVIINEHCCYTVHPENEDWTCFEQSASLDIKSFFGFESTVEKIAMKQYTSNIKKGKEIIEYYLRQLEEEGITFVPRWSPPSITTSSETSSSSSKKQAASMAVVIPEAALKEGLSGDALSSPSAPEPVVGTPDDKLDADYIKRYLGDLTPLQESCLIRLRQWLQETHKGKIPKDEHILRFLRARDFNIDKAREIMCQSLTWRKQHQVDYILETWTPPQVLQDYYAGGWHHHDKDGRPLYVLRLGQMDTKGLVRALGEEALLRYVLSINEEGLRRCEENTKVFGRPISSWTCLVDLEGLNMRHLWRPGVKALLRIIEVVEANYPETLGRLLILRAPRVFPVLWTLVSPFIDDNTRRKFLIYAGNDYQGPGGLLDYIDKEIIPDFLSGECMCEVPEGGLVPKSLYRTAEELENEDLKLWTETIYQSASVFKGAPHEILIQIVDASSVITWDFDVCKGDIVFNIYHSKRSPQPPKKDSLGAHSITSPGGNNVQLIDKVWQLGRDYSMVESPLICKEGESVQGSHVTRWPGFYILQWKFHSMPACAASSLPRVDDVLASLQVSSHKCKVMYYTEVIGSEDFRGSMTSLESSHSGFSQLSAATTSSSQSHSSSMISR
UniProt Q8NBS9: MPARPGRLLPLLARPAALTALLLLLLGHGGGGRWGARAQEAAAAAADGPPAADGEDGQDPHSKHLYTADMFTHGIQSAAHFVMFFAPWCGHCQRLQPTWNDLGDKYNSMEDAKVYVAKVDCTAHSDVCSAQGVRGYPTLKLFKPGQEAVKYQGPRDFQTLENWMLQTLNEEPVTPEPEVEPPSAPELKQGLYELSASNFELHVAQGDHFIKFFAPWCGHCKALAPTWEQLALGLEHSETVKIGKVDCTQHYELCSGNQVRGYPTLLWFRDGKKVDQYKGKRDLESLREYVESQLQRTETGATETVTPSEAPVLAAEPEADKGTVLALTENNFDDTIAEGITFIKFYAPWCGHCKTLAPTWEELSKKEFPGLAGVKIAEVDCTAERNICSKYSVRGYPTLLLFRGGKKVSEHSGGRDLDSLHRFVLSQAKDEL
UniProt Q8N1G4: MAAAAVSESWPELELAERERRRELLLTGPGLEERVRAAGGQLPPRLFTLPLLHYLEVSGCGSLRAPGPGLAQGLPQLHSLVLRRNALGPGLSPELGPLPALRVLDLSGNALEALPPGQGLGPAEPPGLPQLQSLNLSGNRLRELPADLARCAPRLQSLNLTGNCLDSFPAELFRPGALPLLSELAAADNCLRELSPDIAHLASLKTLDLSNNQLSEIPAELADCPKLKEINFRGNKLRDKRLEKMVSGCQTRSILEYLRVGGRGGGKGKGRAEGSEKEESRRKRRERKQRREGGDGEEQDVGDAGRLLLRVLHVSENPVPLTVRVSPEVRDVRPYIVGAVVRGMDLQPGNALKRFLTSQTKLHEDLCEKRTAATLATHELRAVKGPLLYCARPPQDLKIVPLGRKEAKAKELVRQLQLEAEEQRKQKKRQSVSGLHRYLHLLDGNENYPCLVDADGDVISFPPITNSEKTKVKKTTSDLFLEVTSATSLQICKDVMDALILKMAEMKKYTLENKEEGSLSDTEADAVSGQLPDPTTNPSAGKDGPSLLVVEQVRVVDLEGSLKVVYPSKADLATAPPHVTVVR
UniProt Q8N6M0: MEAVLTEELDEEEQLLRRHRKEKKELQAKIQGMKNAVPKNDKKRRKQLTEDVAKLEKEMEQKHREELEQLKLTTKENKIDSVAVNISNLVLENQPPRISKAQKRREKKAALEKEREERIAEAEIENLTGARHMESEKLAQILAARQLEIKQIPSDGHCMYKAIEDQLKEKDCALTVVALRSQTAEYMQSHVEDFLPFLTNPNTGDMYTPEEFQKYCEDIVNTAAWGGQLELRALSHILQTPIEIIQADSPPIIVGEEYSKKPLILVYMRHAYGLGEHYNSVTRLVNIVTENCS
UniProt Q8WWH5: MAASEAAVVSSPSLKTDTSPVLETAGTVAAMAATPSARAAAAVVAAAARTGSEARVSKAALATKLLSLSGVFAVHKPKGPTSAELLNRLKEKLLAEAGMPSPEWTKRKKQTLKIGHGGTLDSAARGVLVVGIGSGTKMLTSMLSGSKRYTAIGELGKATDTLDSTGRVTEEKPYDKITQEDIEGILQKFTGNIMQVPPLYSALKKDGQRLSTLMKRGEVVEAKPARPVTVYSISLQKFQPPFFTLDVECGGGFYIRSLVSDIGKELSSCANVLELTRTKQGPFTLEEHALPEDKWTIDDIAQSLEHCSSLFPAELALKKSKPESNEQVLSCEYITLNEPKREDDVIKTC
UniProt Q8N4Q0: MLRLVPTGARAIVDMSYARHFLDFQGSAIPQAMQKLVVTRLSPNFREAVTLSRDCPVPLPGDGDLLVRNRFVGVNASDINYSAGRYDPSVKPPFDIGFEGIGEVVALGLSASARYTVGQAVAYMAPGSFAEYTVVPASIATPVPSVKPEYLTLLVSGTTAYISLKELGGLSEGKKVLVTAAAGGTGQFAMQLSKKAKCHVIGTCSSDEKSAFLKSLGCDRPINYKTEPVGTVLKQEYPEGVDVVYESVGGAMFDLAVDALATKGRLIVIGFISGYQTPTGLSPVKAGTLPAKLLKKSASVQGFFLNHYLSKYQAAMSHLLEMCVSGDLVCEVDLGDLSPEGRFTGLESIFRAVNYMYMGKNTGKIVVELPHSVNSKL
UniProt Q8WVM8, whole entry, looked up: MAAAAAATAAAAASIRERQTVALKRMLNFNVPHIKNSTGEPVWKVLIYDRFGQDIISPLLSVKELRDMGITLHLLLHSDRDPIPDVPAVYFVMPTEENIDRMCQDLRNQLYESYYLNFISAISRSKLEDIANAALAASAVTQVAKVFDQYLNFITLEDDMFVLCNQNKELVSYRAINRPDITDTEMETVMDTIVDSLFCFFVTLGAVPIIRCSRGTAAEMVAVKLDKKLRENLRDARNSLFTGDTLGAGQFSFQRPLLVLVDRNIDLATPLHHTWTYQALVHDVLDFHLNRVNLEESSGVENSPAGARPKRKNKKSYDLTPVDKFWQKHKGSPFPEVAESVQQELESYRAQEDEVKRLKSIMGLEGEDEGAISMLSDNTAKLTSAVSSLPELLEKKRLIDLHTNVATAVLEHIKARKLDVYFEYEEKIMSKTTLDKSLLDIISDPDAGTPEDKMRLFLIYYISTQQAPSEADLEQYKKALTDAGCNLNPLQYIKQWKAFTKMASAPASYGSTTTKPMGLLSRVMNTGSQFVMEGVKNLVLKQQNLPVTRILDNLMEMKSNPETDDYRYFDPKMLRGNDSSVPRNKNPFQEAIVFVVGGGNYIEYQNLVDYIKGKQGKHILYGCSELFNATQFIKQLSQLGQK
UniProt Q8NBW4: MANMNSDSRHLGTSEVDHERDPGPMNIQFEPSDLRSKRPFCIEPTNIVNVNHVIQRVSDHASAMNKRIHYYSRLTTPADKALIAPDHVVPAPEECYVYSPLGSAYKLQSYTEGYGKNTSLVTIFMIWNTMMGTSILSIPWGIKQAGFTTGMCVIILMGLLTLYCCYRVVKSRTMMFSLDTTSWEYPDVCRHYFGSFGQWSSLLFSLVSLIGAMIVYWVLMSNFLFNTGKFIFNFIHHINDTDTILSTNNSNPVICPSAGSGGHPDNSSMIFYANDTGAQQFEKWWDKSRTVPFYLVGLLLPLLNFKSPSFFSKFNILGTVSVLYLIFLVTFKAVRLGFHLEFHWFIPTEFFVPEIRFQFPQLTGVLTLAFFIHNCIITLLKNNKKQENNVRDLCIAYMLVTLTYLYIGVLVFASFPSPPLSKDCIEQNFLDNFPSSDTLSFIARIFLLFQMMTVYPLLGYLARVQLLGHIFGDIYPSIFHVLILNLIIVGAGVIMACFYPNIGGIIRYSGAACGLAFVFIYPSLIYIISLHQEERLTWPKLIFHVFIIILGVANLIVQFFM
UniProt Q8TBP6: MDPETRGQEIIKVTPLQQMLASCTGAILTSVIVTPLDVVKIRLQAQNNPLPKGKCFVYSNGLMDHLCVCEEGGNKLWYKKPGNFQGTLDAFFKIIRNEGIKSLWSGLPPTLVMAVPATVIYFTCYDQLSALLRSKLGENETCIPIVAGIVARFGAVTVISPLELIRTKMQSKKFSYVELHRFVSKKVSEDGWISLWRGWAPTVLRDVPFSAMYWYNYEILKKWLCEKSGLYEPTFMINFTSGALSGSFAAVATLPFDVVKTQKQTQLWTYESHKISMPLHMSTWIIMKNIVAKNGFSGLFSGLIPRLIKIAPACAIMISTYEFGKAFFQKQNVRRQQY
UniProt Q8WU90: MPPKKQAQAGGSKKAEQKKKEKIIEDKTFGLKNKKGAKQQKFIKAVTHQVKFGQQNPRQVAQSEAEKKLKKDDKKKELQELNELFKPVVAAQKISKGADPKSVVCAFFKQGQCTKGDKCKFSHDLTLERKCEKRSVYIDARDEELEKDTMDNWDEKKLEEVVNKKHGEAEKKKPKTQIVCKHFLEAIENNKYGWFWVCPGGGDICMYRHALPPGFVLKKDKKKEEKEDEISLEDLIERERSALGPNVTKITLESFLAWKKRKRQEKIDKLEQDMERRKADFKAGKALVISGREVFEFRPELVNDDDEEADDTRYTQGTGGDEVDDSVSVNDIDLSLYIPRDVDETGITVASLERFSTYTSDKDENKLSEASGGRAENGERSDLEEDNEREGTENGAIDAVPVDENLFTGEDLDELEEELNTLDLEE
UniProt Q8NEM7: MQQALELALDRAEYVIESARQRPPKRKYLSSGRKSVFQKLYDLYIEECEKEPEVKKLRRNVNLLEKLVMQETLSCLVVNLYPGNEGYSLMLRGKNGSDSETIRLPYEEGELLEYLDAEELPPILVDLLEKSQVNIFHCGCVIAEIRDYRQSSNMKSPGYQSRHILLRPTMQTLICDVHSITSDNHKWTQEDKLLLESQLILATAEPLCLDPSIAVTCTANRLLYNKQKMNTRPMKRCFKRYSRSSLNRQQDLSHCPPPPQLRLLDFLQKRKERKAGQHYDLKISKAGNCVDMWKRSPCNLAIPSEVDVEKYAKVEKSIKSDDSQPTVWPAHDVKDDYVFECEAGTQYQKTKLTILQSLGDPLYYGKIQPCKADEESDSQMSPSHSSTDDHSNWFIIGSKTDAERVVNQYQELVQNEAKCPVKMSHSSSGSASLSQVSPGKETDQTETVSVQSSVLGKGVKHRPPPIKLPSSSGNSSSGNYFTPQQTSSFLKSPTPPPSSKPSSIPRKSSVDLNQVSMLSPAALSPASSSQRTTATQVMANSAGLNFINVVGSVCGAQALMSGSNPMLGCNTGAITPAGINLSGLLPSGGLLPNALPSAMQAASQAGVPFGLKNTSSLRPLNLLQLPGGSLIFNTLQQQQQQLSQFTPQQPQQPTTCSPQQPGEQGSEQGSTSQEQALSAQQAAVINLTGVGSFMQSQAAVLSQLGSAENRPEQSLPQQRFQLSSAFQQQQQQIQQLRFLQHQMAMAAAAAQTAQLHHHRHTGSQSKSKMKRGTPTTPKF

Compound: COC(=O)C#Cc1ccccc1 [methyl 3-phenylpropiolate]
Assay: log2 ratio of iodoacetamide-alkyne labeling of the cysteine site, DMSO over compound (competition); higher = stronger covalent engagement of the cysteine by the compound, active = 1 or more
Conditions: 500 µM; treatment time 1 h; system: HEK293T cell lysate
Outline: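 Reporter intensities give each cysteine's log2 competition ratio as the mean of control channels over the mean of compound channels. The samples were HEK293T lysate (2 mg/mL) given vehicle or electrophile (500 µM, 1 h, ambient temperature), then iodoacetamide alkyne (1 h), followed by click coupling to sCIP-TMT reagents, pooling, trypsin digestion overnight at 37 °C, streptavidin enrichment, acid elution, Orbitrap Eclipse LC-MS/MS with FAIMS and FragPipe quantification. Duplicate channels and three replicates were run, and cysteines quantified in only one replicate were discarded.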

log2 ratio of iodoacetamide-alkyne labeling, inactive:
C2orf69 C54 (UniProt Q8N8R5) 0.37
SEC14L1 C258 (UniProt Q92503) 0.208
TXNDC5 C89 (UniProt Q8NBS9) 0.232
LRRC47 C190 (UniProt Q8N1G4) 0.324
OTUD6B C292 (UniProt Q8N6M0) 0.741
TRUB1 C249 (UniProt Q8WWH5) 0.0333
ZADH2 C55 (UniProt Q8N4Q0) -0.176
SCFD1 C485 (UniProt Q8WVM8) 0.0104
SLC38A9 C41 (UniProt Q8NBW4) 0.142
SLC25A40 C142 (UniProt Q8TBP6) 0.134
ZC3H15 C105 (UniProt Q8WU90) 0.129
ZGPAT C377 (UniProt Q8N5A5) 0.342
SYNE2 C5212 (UniProt Q8WXH0) 0.603
BCL7C C211 (UniProt Q8WUZ0) 0.622
SUPT20H C298 (UniProt Q8NEM7) 0.262
MRPL43 C91 (UniProt Q8N983) 0.196

4 consecutive records out of the list so far, quoted:
log2 ratio of iodoacetamide-alkyne labeling, inactive:
ZGPAT C377 (UniProt Q8N5A5) 0.342
SYNE2 C5212 (UniProt Q8WXH0) 0.603
BCL7C C211 (UniProt Q8WUZ0) 0.622
SUPT20H C298 (UniProt Q8NEM7) 0.262
